Results reported in article PMC7862700.
This is a selection; strong and weak results do not stand in their true shares. For some assays here: At the low end of the ranking the order means little.

Amino acid sequences for entries named in this document (tags omitted). A change or cut given only in a name is not applied to a line headed by its entry.
UniProt Q9Y603: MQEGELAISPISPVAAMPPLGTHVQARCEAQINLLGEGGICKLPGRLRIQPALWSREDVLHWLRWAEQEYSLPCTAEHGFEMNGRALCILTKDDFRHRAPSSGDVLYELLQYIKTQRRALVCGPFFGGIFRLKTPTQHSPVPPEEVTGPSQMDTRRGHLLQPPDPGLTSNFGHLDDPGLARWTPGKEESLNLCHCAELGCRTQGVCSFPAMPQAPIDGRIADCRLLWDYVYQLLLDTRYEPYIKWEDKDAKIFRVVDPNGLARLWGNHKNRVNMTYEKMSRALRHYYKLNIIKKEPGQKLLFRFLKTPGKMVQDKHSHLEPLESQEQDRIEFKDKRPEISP
UniProt P41212: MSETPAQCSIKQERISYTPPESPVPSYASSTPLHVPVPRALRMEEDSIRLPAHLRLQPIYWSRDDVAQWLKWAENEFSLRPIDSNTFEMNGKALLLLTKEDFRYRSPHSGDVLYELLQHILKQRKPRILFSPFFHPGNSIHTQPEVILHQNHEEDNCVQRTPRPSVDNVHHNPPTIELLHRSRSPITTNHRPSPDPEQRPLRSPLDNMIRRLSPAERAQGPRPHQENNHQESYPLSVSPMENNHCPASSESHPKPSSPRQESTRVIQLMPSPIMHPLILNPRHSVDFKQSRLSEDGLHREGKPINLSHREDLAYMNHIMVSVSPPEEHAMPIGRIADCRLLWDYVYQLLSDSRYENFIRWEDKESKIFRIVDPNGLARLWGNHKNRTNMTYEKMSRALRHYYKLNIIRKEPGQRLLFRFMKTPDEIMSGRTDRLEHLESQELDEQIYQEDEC

Assays:
Experiment in all cases: DAPPL (digital affinity profiling via proximity ligation, sequencing)
Conditions in all cases: 10 mM Tris-HCl pH 7.5, 50 mM NaCl, 1 mM DTT, 4% glycerol, room temperature, 30 min; GST-TFs on glutathione beads, 16-mer random dsDNA library, 0.1% …; high values mean tight binding; double strand, one strand shown; scale: fold enrichment (6-mer frequency, TF over GST control)
ELF3 = biological target: T1, ELF3 (UniProt P78545)
T1 sequence: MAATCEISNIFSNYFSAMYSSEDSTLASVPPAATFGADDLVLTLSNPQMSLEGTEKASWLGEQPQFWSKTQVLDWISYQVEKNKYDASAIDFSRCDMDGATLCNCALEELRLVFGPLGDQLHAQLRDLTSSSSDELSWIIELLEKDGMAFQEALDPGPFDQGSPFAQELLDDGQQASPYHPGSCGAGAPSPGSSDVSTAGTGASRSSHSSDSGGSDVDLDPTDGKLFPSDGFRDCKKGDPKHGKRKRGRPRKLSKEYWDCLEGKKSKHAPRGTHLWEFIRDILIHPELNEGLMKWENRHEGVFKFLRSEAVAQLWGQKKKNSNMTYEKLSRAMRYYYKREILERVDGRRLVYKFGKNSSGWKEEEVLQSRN

ETV7 = ETV7 (UniProt Q9Y603)
ETV6 = ETV6 (UniProt P41212)

Sequence: CCGGTA
- binding signal (ELF3): 1.6

Sequence: ACCTAA
- binding signal (ELF3): 1.2

Sequence: AATTAG
- binding signal (ELF3): 1.13

Sequence: CAAATA
- binding signal (ELF3): 1.4

Sequence: CATCTA
- binding signal (ELF3): 1.33

Sequence: AGAAAT
- binding signal (ELF3): 1.2

Sequence: TATTGT
- binding signal (ELF3): 1.23

Sequence: GAATAC
- binding signal (ELF3): 0.923

Sequence: TAAAAC
- binding signal (ELF3): 1.14

Sequence: ATGTGT
- binding signal (ELF3): 0.983

Sequence: CCAAAA
- binding signal (ELF3): 1.03

Sequence: GTCCAC
- binding signal (ELF3): 0.773

Sequence: TCCAAT
- binding signal (ELF3): 1.11

Sequence: TTACAA
- binding signal (ELF3): 1.22

Sequence: GTATTC
- binding signal (ELF3): 1.31

Sequence: ATTGCT
- binding signal (ELF3): 1.28

Sequence: ATGGCT
- binding signal (ELF3): 1.33

Sequence: TCTAGC
- binding signal (ELF3): 1.32

Sequence: GTAAAC
- binding signal (ELF3): 1.38

Sequence: TTACGA
- binding signal (ELF3): 0.998

Sequence: GATGAC
- binding signal (ELF3): 1.48

Sequence: TTTTGT
- binding signal (ELF3): 1.43

Sequence: CTGAAT
- binding signal (ELF3): 1.15

Sequence: CCGCCC
- binding signal (ELF3): 1.28

Sequence: TCTCCC
- binding signal (ELF3): 1.78

Sequence: ACCTGC
- binding signal (ELF3): 1.65

Sequence: AAGTTT
- binding signal (ELF3): 1.35

Sequence: TTAACT
- binding signal (ELF3): 1.21

Sequence: GAATAA
- binding signal (ELF3): 1.12

Sequence: ATATGT
- binding signal (ELF3): 1.14

Sequence: TGAAAC
- binding signal (ELF3): 1.42

Sequence: TCTGTC
- binding signal (ELF3): 1.19

Sequence: TTCTTC
- binding signal (ELF3): 1.74

Sequence: TCCCTT
- binding signal (ELF3): 1.5

Sequence: ATACAG
- binding signal (ELF3): 1.12

Sequence: TAAAAG
- binding signal (ELF3): 1.21

Sequence: CTTAGG
- binding signal (ELF3): 1.49

Sequence: CACCAT
- binding signal (ELF3): 1.1

Sequence: TCCATC
- binding signal (ELF3): 1.11

Sequence: TGACTT
- binding signal (ELF3): 1.55

Sequence: ACGTTC
- binding signal (ELF3): 1.25

Sequence: CTTGTT
- binding signal (ELF3): 0.972

Sequence: TTGTGG
- binding signal (ELF3): 1.34

Sequence: GCCTTT
- binding signal (ELF3): 1.38

Sequence: GATTAC
- binding signal (ELF3): 1.04

Sequence: CTCTGT
- binding signal (ELF3): 1.4

Sequence: CATTCC
- binding signal (ELF3): 1.2

Sequence: CATTTC
- binding signal (ELF3): 1.61

Sequence: CCGCGT
- binding signal (ELF3): 1.16

Sequence: AATGCT
- binding signal (ELF3): 1.21

Sequence: GGTTTC
- binding signal (ELF3): 1.31

Sequence: GAATTC
- binding signal (ELF3): 1.13

Sequence: ACCAAT
- binding signal (ELF3): 1.28

Sequence: TACTCG
- binding signal (ELF3): 1.29

Sequence: TTCTCG
- binding signal (ELF3): 1.57

Sequence: AGATTC
- binding signal (ELF3): 1.11

Sequence: TACACG
- binding signal (ELF3): 1.15

Sequence: AAAAGC
- binding signal (ELF3): 1.22

Sequence: TTTGGC
- binding signal (ELF3): 0.972

Sequence: ATCGCC
- binding signal (ELF3): 1.12

Sequence: GGTATA
- binding signal (ELF3): 0.909

Sequence: AGAAGC
- binding signal (ELF3): 1.09

Sequence: ACTGCT
- binding signal (ELF3): 1.32

Sequence: TGCGAT
- binding signal (ELF3): 1.03

Sequence: TTAGCG
- binding signal (ELF3): 0.937

Sequence: ATCCCC
- binding signal (ELF3): 1.53

Sequence: CTGACT
- binding signal (ELF3): 1.52

Sequence: CTGCCC
- binding signal (ELF3): 1.09

Sequence: AACTTA
- binding signal (ELF3): 1.12

Sequence: CGTATG
- binding signal (ELF3): 0.952

Sequence: TCTAAT
- binding signal (ELF3): 1.16

Sequence: TACATC
- binding signal (ELF3): 1.48

Sequence: CGTACT
- binding signal (ELF3): 1.15

Sequence: TCTCGC
- binding signal (ELF3): 1.88

Sequence: AACAGG
- binding signal (ELF3): 1.15

Sequence: TTAGAA
- binding signal (ELF3): 0.922

Sequence: ATAACT
- binding signal (ELF3): 1.24

Sequence: CTGGCC
- binding signal (ELF3): 1

Sequence: GATGCC
- binding signal (ELF3): 1.4
- binding signal (ETV7): 1.27

Sequence: CGAGTT
- binding signal (ELF3): 1.16
- binding signal (ETV7): 1.08

Sequence: TGTGGA
- binding signal (ELF3): 1
- binding signal (ETV7): 0.879

Sequence: GGAAGC
- binding signal (ELF3): 1.48
- binding signal (ETV7): 1.62

Sequence: TATCAG
- binding signal (ELF3): 1.09

Sequence: ACATGG
- binding signal (ELF3): 1.17
- binding signal (ETV7): 1.08

Sequence: CGATAA
- binding signal (ELF3): 0.947
- binding signal (ETV7): 1.08

Sequence: ATGAAA
- binding signal (ELF3): 1.19
- binding signal (ETV7): 1.07

Sequence: GTTCTT
- binding signal (ELF3): 1.31
- binding signal (ETV7): 1.18

Sequence: ACTTAT
- binding signal (ELF3): 1.27
- binding signal (ETV7): 1.21

Sequence: CTCAGA
- binding signal (ELF3): 0.991
- binding signal (ETV7): 0.966

Sequence: TAAAGT
- binding signal (ELF3): 1.13
- binding signal (ETV7): 1.25

Sequence: CATCGA
- binding signal (ELF3): 1.04
- binding signal (ETV7): 1.13

Sequence: GATGAT
- binding signal (ELF3): 1.33
- binding signal (ETV7): 1.36

Sequence: TGTGAC
- binding signal (ELF3): 1.16

Sequence: GGCTCT
- binding signal (ELF3): 1.44
- binding signal (ETV7): 1.44

Sequence: ACTAGC
- binding signal (ELF3): 1.01
- binding signal (ETV7): 1.16

Sequence: GTCTTC
- binding signal (ELF3): 1.46
- binding signal (ETV7): 1.14

Sequence: TACCAC
- binding signal (ELF3): 1.25

Sequence: CGCTCC
- binding signal (ELF3): 1.3

Sequence: TTCAAA
- binding signal (ELF3): 1.43
- binding signal (ETV7): 1.19

Sequence: TGTAGC
- binding signal (ELF3): 0.922
- binding signal (ETV7): 1.12

Sequence: CCCATG
- binding signal (ELF3): 0.962
- binding signal (ETV7): 0.97

Sequence: GATGAA
- binding signal (ELF3): 0.979
- binding signal (ETV7): 1.24

Sequence: TGCCAA
- binding signal (ELF3): 1.17
- binding signal (ETV7): 1.01

Sequence: ATGCTT
- binding signal (ELF3): 1.35

Sequence: TTTACA
- binding signal (ELF3): 1.4
- binding signal (ETV7): 1.22

Sequence: CTAGCT
- binding signal (ELF3): 1.07
- binding signal (ETV7): 1.33

Sequence: CAAAAA
- binding signal (ELF3): 1.12
- binding signal (ETV7): 1.1

Sequence: AAAAGG
- binding signal (ELF3): 1.2
- binding signal (ETV7): 1.16

Sequence: GGTTTA
- binding signal (ELF3): 1.13
- binding signal (ETV7): 1.15

Sequence: TCGCAA
- binding signal (ELF3): 0.914
- binding signal (ETV7): 1.01

Sequence: ATCAGC
- binding signal (ELF3): 1.13
- binding signal (ETV7): 0.958

Sequence: TCTACG
- binding signal (ELF3): 1.5
- binding signal (ETV7): 1.36

Sequence: GTCTAC
- binding signal (ELF3): 0.978
- binding signal (ETV7): 0.959

Sequence: GAAAGA
- binding signal (ELF3): 0.935
- binding signal (ETV7): 1.1

Sequence: TTTAGC
- binding signal (ELF3): 1.08
- binding signal (ETV7): 1.03

Sequence: GTCCCT
- binding signal (ELF3): 1.23
- binding signal (ETV7): 1.22

Sequence: TTGCGC
- binding signal (ELF3): 0.94
- binding signal (ETV7): 1.12

Sequence: ACGGCC
- binding signal (ELF3): 0.961
- binding signal (ETV7): 1.13

Sequence: ATCATA
- binding signal (ELF3): 0.994
- binding signal (ETV7): 1.1
- binding signal (ETV6): 1.1

Sequence: TAGGTT
- binding signal (ELF3): 1.14
- binding signal (ETV7): 0.945
